Source: ChEMBL document CHEMBL3988442, “University of Dundee, Small-Polar-MMV Screening Library” (2021).

Protein sequences, listed by entry. Tags and fused reporters are not part of them.
UniProt E9BF75, entry or part of it: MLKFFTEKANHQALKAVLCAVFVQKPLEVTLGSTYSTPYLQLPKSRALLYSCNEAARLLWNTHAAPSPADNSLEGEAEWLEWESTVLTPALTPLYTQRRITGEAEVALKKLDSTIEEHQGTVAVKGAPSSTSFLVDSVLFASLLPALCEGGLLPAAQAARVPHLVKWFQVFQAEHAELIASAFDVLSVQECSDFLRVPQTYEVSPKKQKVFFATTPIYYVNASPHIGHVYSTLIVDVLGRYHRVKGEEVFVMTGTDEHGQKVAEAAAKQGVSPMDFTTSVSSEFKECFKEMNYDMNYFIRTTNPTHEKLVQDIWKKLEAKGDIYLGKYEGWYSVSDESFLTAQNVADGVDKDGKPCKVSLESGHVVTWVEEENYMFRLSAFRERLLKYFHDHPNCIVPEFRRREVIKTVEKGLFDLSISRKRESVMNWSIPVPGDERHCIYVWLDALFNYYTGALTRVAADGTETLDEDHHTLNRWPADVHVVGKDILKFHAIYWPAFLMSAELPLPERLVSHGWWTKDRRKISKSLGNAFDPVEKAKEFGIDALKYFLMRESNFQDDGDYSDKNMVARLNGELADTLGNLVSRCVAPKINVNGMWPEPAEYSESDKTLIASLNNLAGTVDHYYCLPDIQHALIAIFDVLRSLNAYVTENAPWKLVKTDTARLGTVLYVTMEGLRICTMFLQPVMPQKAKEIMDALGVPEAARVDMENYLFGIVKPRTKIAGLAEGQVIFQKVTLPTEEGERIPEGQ

Results are percentages, as filed.
How 0% and 100% were set is not recorded. Most values in the screen are low, and negative values occur.
The compounds are a random part of those screened.
A dash means the value is not listed here; it may have been measured.

Mtb heat-shock: 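Assay on Mycobacterium tuberculosis, filed only as a heat shock assay from Cornell; the read-out is not stated. The concentration is filed as 10 mM, unlikely as a test dose, so the dose is not known. Direction is inferred from retests: higher values go with stronger inhibition. About 69,000 compounds were tested under these conditions; 1.4% (about 930) showed 50% or more at least once.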
LdMetRS: 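Methionyl-tRNA synthetase (putative), Leishmania donovani (UniProt E9BF75). Primary screen of methionyl-tRNA synthetase; the read-out is not stated. The test concentration is not given. The values are filed as inhibition. About 68,000 compounds were tested under these conditions; 0.035% (about 24) showed 50% or more at least once.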
Mtb growth Cornell: 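Whole-cell assay for inhibitors of Mycobacterium tuberculosis growth, labelled Cornell in the record; the read-out is not stated. The concentration is filed as 10 mM, unlikely as a test dose, so the dose is not known. The record gives no direction; compounds strong in two other growth screens of this library score well above the rest, so higher reads as stronger inhibition. Of about 53,000 compounds tested this way, about 900 (1.7%) reached 50% or more in at least one test.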

SMILES,Mtb heat-shock,LdMetRS,Mtb growth Cornell
CC1=C(C(=O)N(C)Cc2n[nH]c3c2CCCCC3)C(C)NC(=O)N1 (stereo not drawn),-6.856,19.2,-25.13
[H][C@]12CC[C@]([H])(CN(Cc3cccc(C(=O)Nc4c(C)nn(C)c4C)c3)C1)N2,24.91,-,-6.746
CCCc1noc(-c2cn(CC(=O)N(CC)CC)nn2)n1,11.45,12.3,15.09
Cc1cccnc1CN1CCN(CC(=O)N(C)C)[C@@H]2CS(=O)(=O)C[C@@H]21,-,6.452,-
COc1cc(C(=O)NS(=O)(=O)c2cccc(C#N)c2)cc(OC)c1C,-9.624,9.218,17.23
O=C(OC1CCC1)c1ncccc1C(F)(F)F,13.33,12.32,22.16
Cc1cnn(CC2CCCCN2CCCS(C)(=O)=O)c1 (stereo not drawn),-15.13,23.41,-42.26
CCN1CCn2c(C)cnc2C12CCN(C(=O)CC(C)C)CC2.O=C(O)C(F)(F)F.O=C(O)C(F)(F)F,6.739,-,-12.79
CC(Cn1cccn1)NC(=O)NCc1ccnc(OC2CCCC2)c1 (stereo not drawn),-17.03,18.79,-21
Cc1ncn(-c2cc(N3CCN(S(C)(=O)=O)CC3)ncn2)c1C,-2.488,9.42,-7.19
CC(=O)N1CCN(C(C)c2nnc(CC(C)C)o2)CC1 (stereo not drawn),9.847,6.977,3.173
COCc1nn(C(C)C)c2c1CCN(Cc1ccccn1)C2.O=C(O)C(F)(F)F.O=C(O)C(F)(F)F,-3.25,-,-1.675
Cn1cc(CN2CCCC3(CCN(C(=O)c4ccccn4)C3)C2)cn1.O=C(O)C(F)(F)F.O=C(O)C(F)(F)F.O=C(O)C(F)(F)F (stereo not drawn),1.349,-,21.96
CCC(Nc1ccc(Oc2ccc(C#N)cc2OC)cc1)C(N)=O (stereo not drawn),0.2939,11.88,-
CCN1CCC(c2nc3ccc(NC4CCC4)cn3n2)CC1.O=C(O)C(F)(F)F,28.46,-,1.977
CCn1cnnc1CNC(=O)N1CCN(c2ccccc2OC)CC1,-11.8,17.95,-70.65
COc1ccc2c(c1)CCCN2C(=O)NC1CCCCNC1=O (stereo not drawn),-20.63,0.9119,-5.889
CC1CCN(CCNC(=O)c2sccc2C2CC2)CC1,-29.54,4.237,-6.826
COc1cc(N2C[C@H]3CN(C(=O)c4cnccn4)C[C@H]3C2)ncn1,-,13.01,-
C[C@@H](O)CNC(=O)c1nc(CC(=O)Nc2ccccc2)no1,6.863,5.263,25.62
CC(=O)N1CCC2(CC1)CN(CC1CC1)c1ccc(F)cc12,6.613,9.384,-6.159
O=C1COc2ccc(Cl)cc2CN1CC1CC1,-9.338,18.65,27.45
CC(NC(=O)NCC1(c2ccc(F)cc2)CCC1)c1nncn1C (stereo not drawn),-16.13,15.75,1.059
Cc1cc(C2CCCN(C(=O)c3cnccn3)C2)ccn1 (stereo not drawn),-4.35,12.67,-2.271
Cc1cccc(C)c1C(=O)N1C[C@@H](CN2CCOCC2)[C@@H](CO)C1,-3.708,8.696,19.79
O=C(O)c1cc(S(=O)(=O)Nc2cc(F)cc(F)c2)cc2c1OCCO2,-11.79,15.19,-18.53
Cc1sc2c(C3CCNCC3)nc(Nc3cccc(F)c3)n2c1C.Cl,26.64,-,-14.03
O=C(NCc1ccc(C(=O)O)o1)c1ccc(F)cc1,-7.43,6.964,-
CN(C)c1cncc(C2CCN(CCO)CC2)n1,-0.9312,7.877,8.823
Cc1cccc(CN2CCC3(CCN(Cc4ccccn4)C3)C2=O)c1 (stereo not drawn),-,1.684,-
CNC(=O)c1noc(Cn2ncc3ccccc3c2=O)n1,-2.721,-5.013,-7.283
CCOC(=O)N1CCN(C(=O)c2cc(-c3ccc(C)cc3)on2)CC1,3.022,1.737,29.16
CSc1ccccc1CC1CCCS(=O)(=O)C1 (stereo not drawn),-35.6,2.466,-
c1ccc(-c2nc(CN3CCn4c(nnc4C4CC4)C3)co2)cc1,7.773,21.1,-31.18
[H][C@]12CC[C@]([H])(CN(Cc3cccnc3)C1)N(C(=O)CSCCC)C2,-25.3,-,-
c1ccc(Cc2noc(CN3CCCCC3C3OCCO3)n2)cc1 (stereo not drawn),-21.9,10.34,9.526
COCCOc1ccccc1CNCc1c(C)nn(C)c1N(C)C,17.17,13.73,23.01
O=C(NCC1CCCCO1)c1ccc(-c2cccs2)[nH]c1=O (stereo not drawn),-5.512,9.358,-
Cc1cc(C(F)(F)F)cc(=O)n1Cc1nc(C(C)C)no1,9.874,10.7,-
[H][C@]12CC[C@]([H])(CN(C(=O)N(C)C)C1)N(C(=O)Cn1ccnc1CC)C2,-28.79,-,-14.18
CSc1ccccc1C(=O)NCCCN1CCc2ccccc2C1,-15.62,26.88,-16.13

5 of the entries, repeated:

SMILES	Mtb heat-shock	LdMetRS	Mtb growth Cornell
CCN1CCC(c2nc3ccc(NC4CCC4)cn3n2)CC1.O=C(O)C(F)(F)F	28.46	-	1.977
CSc1ccccc1CC1CCCS(=O)(=O)C1 (stereo not drawn)	-35.6	2.466	-
CC1=C(C(=O)N(C)Cc2n[nH]c3c2CCCCC3)C(C)NC(=O)N1 (stereo not drawn)	-6.856	19.2	-25.13
Cc1ncn(-c2cc(N3CCN(S(C)(=O)=O)CC3)ncn2)c1C	-2.488	9.42	-7.19
CC(Cn1cccn1)NC(=O)NCc1ccnc(OC2CCCC2)c1 (stereo not drawn)	-17.03	18.79	-21